Data from publication PMC4361764, “TatBC-Independent TatA/Tat Substrate Interactions Contribute to Transport Efficiency” (PLoS ONE, 2015).
Results are given in words; binding and its absence hold for the method and conditions named. Binding seen in cells or lysates may run through a third protein.

The chains behind the UniProt entries cited, without tags or fusion partners. Where a name states a change or a piece, a line headed by the entry shows the natural chain unless it says otherwise.
UniProt P00260: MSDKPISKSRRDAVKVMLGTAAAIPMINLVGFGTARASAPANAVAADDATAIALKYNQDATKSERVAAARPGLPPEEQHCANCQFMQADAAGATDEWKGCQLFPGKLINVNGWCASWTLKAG

Experiments:
[1] = target: HiPIP-T50A precursor with C-terminal His6-tag (Allochromatium vinosum) (UniProt P00260); test: pull-down; affinity co-purification without detergent: His6-tagged substrate made in E. coli MC4100 with non-recombinant TatA; cells disrupted, soluble fraction, Ni2+-affinity chromatography; co-elution of TatA seen by Western blot
[2] = target: HiPIP-T50D precursor with C-terminal His6-tag (Allochromatium vinosum) (UniProt P00260); test: as above

binding [1]: no binding
binding [2]: no binding
B1: Strep-tagged TatA from Escherichia coli (natural protein, UniProt P69428 1-89, looked up)
chain: MGGISIWQLLIIAVIVVLLFGTKKLGSIGSDLGASIKGFKKAMSDDEPKQDKTSQDADFTAKTIADKQADTNQEQAKTEDAKRHDKEQV
notes: TatA of Escherichia coli; The soluble form is a large association of many protomers; also called TatA-strep; soluble TatA-strep; source: E. coli DADE tatA-strep-tatBC (single-copy, wild-type level): in crude soluble extract; or purified from the soluble fraction (Strep-Tactin, Superose 6); not shown: Strep-tag, C-terminal, kept
